These results are taken from paper PMC4461266 (PLoS Pathogens, 2015).

Protein sequences, listed by entry. Tags and fused reporters are not part of them.
UniProt P03431: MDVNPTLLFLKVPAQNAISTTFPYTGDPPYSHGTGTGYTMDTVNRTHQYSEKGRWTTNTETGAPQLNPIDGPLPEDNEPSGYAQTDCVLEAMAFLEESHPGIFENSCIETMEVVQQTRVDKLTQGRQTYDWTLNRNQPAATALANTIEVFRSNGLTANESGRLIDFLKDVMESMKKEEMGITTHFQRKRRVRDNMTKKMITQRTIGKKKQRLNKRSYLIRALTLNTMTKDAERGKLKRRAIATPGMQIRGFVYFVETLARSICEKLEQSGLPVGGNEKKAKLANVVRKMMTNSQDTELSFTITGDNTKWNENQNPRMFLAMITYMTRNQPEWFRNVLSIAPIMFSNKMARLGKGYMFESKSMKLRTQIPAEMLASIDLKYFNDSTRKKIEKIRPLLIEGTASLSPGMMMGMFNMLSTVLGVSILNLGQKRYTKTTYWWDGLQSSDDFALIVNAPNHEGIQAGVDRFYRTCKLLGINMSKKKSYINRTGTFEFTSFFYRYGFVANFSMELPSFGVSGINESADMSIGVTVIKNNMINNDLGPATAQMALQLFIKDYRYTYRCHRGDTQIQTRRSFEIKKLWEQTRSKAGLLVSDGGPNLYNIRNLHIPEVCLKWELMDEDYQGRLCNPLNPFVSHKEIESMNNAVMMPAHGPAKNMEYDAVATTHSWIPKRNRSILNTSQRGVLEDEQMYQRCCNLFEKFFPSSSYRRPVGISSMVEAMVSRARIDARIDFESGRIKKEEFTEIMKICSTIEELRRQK
UniProt Q9UNE7: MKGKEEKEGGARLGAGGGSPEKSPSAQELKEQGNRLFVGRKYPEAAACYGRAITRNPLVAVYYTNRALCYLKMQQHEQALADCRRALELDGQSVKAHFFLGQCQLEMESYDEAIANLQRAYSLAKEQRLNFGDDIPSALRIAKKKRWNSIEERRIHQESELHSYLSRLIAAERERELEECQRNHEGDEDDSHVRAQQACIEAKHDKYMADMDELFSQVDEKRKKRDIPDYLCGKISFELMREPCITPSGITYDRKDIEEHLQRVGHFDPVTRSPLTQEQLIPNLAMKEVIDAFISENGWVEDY
UniProt Q13049: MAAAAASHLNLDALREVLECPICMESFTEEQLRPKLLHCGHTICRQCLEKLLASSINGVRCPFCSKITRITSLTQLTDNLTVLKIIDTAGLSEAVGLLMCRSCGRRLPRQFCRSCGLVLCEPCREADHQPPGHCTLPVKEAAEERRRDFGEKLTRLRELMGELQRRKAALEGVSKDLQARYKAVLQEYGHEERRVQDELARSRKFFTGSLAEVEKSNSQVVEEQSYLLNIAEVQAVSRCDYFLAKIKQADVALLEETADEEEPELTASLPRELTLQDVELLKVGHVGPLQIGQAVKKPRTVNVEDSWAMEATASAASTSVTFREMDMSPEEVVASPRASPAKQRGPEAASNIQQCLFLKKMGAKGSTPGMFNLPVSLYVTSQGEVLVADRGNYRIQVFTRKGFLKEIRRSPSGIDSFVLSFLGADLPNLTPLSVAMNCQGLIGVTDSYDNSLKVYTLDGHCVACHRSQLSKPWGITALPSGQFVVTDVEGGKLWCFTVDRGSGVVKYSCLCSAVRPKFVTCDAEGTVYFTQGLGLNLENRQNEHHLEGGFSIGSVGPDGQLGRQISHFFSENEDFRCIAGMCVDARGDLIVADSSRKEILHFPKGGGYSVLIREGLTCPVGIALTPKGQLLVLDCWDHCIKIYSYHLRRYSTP
UniProt Q6DN90: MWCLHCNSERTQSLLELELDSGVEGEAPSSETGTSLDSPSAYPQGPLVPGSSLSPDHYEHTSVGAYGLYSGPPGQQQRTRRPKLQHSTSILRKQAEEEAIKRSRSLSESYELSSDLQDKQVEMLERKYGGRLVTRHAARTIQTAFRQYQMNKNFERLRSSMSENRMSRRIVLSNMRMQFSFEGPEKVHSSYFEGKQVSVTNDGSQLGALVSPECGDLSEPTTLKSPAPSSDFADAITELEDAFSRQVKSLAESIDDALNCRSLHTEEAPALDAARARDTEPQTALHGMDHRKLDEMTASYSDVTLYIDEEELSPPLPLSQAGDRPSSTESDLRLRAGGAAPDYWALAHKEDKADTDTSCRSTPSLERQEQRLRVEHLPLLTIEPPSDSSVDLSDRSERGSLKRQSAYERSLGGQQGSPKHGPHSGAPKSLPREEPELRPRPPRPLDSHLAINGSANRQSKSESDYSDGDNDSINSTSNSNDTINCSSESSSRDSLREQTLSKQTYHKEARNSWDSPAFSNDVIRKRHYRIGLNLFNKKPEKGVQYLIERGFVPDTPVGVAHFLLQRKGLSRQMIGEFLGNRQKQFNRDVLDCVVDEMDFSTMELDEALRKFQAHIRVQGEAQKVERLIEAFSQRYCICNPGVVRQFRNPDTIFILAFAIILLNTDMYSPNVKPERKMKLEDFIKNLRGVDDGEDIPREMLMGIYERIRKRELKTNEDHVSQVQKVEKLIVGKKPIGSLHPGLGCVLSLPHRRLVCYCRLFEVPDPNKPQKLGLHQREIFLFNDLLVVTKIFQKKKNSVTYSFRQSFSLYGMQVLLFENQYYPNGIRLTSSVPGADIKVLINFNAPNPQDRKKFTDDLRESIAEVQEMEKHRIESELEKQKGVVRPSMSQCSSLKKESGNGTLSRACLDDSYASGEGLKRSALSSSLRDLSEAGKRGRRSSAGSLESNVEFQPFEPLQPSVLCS
UniProt O75340: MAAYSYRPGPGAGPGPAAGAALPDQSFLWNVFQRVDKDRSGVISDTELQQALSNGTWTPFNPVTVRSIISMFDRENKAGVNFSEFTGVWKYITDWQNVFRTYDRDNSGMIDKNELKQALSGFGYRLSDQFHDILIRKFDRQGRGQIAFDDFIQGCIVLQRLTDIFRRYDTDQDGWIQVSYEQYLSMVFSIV
UniProt P51570: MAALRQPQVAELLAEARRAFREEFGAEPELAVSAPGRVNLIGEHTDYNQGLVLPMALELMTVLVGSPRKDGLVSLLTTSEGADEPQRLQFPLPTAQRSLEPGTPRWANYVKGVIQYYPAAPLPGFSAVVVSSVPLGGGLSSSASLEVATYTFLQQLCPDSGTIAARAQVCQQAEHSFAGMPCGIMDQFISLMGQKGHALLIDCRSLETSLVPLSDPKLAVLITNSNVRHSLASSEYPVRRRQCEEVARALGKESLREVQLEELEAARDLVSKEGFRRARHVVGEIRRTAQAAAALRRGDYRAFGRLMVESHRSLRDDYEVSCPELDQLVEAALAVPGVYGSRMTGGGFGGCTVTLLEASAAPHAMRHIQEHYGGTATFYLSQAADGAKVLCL

Results are given in words; binding and its absence hold for the method and conditions named. Binding seen in cells or lysates may run through a third protein. A yes stands for co-enrichment or nearness to the bait. Other partners may have been found.

B1: HAUS6/DGT6 (protein, UniProt Q7Z4H7 1-955)
chain: MSSASVTAFEKEHLWMYLQALGFEPGPATIACGKIVSHTHLGVNMFDKLNRDAFHIISYFLFQVLDQSLTKEVFKFCWPPFDQKSDTEFRKHCCEWIKRISGECGSSFPQVVGSLFLSPGGPKFIHLMYHFARFVAMKYIKSNSKNSSHHFVETFNIKPQDLHKCIARCHFARSRFLQILQRQDCVTQKYQENAQLSVKQVRNLRSECIGLENQIKKMEPYDDHSNMEEKIQKVRSLWASVNETLMFLEKEREVVSSVLSLVNQYALDGTNVAINIPRLLLDKIEKQMFQLHIGNVYEAGKLNLLTVIQLLNEVLKVMKYERCQADQARLTVDLHYLEKETKFQKERLSDLKHMRYRIKDDLTTIRHSVVEKQGEWHKKWKEFLGLSPFSLIKGWTPSVDLLPPMSPLSFDPASEEVYAKSILCQYPASLPDAHKQHNQENGCRGDSDTLGALHDLANSPASFLSQSVSSSDRNSVTVLEKDTKMGTPKEKNEAISKKIPEFEVENSPLSDVAKNTESSAFGGSLPAKKSDPFQKEQDHLVEEVARAVLSDSPQLSEGKEIKLEELIDSLGSNPFLTRNQIPRTPENLITEIRSSWRKAIEMEENRTKEPIQMDAEHREVLPESLPVLHNQREFSMADFLLETTVSDFGQSHLTEEKVISDCECVPQKHVLTSHIDEPPTQNQSDLLNKKVICKQDLECLAFTKLSETSRMETFSPAVGNRIDVMGGSEEEFMKILDHLEVSCNKPSTNKTMLWNSFQISSGISSKSFKDNDFGILHETLPEEVGHLSFNSSSSSEANFKLEPNSPMHGGTLLEDVVGGRQTTPESDFNLQALRSRYEALKKSLSKKREESYLSNSQTPERHKPELSPTPQNVQTDDTLNFLDTCDLHTEHIKPSLRTSIGERKRSLSPLIKFSPVEQRLRTTIACSLGELPNLKEEDILNKSLDAKEPPSDLTR

The assay has as its target FLAG-tagged PB1 derived from influenza A/Puerto Rico/8/1934 (PR8) (influenza A virus A/Puerto Rico/8/1934 (H1N1)) (UniProt P03431). Kind of assay: affinity purification with mass spectrometry.
In the case of STUB1 (from UniProt Q9UNE7 1-303), the binding entry is “binds”. For “endogenous TRIM32 (tripartite motif-containing protein 32) (from UniProt Q13049 1-653)”, the binding entry is on record as “binds”. Next, IQSEC1 (from UniProt Q6DN90 1-963): “binds”.

Turning to PDCD6 (from UniProt O75340 1-191), the binding result is “binds”. In the case of GALK1 (from UniProt P51570 1-392), the binding result was “binds”. Next, B1: “binds”.
